According to patent publication EP2931723B1, “NEW BICYCLIC COMPOUNDS AND THEIR USE AS ANTIBACTERIAL AGENTS AND -LACTAMASE INHIBITORS” (Fedora Pharmaceuticals Inc., priority 2012, dated 2014):
At least one read-out could not be matched to a standard name with certainty.

System: E. coli JMI 11103
Experiment: MIC, antibacterial and synergistic activity
Assay type: cell-based
Conditions: E. coli JMI 11103 (CTX-M15 (Intermediate ESBL)); substance alone

SMILES: C[C@H]1[C@H](NC(=O)/C(=N\OC(C)(C)C(=O)O)c2csc(N)n2)C(=O)N1S(=O)(=O)O [Aztreonam, aztreonam, reference compound]
- MIC: 16 µg/mL
